From article PMC12448893 come the findings set out here.

By UniProt entry, the sequences of proteins in these tests, tags left out. Where a name states a change or a piece, a line headed by the entry shows the natural chain unless it says otherwise.
UniProt Q13547: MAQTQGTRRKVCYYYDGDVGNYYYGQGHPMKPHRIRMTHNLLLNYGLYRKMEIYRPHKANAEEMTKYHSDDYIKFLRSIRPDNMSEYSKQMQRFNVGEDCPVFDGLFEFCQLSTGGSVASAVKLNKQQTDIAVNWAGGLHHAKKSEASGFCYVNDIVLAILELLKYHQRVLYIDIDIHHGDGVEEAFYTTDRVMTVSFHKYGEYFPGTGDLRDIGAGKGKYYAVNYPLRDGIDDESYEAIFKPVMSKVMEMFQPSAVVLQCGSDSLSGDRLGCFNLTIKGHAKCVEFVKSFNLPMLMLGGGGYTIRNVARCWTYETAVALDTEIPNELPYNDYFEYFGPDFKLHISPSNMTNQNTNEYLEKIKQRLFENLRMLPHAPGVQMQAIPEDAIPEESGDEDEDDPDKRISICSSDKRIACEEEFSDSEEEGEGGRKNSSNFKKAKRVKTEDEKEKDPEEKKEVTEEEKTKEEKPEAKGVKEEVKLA
UniProt Q80TZ9: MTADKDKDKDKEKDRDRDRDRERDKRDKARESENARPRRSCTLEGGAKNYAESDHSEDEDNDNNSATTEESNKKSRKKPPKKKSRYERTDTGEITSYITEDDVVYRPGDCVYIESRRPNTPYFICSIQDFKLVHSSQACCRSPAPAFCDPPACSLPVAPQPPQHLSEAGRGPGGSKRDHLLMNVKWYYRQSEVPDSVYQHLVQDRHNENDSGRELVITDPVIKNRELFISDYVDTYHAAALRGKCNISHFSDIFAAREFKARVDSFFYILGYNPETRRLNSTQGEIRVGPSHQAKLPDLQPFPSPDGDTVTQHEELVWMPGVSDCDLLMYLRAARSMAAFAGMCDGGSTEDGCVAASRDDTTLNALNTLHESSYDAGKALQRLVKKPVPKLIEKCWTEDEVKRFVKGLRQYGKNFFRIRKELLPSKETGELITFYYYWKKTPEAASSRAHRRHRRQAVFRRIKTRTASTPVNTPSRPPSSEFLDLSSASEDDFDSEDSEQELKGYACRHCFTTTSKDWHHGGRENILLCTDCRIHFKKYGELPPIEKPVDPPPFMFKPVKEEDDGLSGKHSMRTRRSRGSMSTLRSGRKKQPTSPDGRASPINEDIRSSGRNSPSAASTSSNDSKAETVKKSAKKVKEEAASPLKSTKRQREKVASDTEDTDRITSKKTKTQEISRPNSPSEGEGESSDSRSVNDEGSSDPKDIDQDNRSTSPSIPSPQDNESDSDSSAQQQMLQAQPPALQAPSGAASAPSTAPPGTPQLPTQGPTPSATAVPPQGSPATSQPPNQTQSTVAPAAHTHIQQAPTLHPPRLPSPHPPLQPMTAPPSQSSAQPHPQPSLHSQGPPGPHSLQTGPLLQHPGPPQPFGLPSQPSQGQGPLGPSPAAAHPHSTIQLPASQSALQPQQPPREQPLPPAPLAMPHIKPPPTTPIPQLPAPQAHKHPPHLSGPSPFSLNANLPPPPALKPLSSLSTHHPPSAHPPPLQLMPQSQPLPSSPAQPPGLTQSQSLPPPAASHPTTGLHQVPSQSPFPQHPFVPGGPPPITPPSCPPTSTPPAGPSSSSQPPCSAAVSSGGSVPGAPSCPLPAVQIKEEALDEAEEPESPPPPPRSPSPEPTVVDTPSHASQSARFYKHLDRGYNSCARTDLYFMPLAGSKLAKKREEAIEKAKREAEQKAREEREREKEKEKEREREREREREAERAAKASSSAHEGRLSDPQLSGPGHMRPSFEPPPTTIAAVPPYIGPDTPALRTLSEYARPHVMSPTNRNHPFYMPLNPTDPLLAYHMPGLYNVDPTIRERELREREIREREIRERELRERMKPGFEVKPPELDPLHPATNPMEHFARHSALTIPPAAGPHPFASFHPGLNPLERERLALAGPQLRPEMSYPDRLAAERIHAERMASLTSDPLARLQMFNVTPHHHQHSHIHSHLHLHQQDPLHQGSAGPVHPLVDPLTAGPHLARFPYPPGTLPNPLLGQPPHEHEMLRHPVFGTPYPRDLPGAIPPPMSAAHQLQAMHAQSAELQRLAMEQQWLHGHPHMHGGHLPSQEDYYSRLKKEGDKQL
UniProt Q8C796: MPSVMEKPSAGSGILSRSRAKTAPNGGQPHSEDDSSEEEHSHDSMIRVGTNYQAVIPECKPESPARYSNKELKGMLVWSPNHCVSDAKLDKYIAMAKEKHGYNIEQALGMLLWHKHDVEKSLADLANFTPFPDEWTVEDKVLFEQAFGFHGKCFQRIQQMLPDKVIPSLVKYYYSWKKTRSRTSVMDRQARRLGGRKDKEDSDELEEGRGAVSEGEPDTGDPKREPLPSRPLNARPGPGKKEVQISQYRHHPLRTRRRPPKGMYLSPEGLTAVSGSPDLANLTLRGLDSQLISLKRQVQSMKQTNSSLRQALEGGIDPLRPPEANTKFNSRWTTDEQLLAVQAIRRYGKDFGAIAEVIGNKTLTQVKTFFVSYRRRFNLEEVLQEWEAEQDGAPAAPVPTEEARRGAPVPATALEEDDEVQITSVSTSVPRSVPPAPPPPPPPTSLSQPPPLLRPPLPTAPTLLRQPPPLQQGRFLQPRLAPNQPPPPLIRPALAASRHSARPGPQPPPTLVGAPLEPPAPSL

These are yes or no findings as the source states them, for the method shown. In cells and extracts the contact can be indirect. A yes stands for co-enrichment or nearness to the bait. Other partners may have been found.

Assay in all cases: affinity purification with mass spectrometry; Flag IP (anti-Flag on Protein G Dynabeads) of HDAC1-Flag WT, Y48E or E63R from extracts of Hdac1/2 DKO mouse ESCs 5 days after OHT; coIP buffer 250 mM NaCl, 20 mM Tris-HCl pH 7.5, 0.5% IGEPAL, 1 mM EDTA; 4°C overnight; LC-MS/MS; control DKO cells lacking a Flag epitope
In test [1] the target is HDAC1-Flag (wild type), stably expressed in Hdac1/2 double knockout mouse ESCs (UniProt Q13547).
The target in test [2] is HDAC1–E63R (Flag), stably expressed in Hdac1/2 double knockout mouse ESCs (UniProt Q13547).
Test [3] deals with HDAC1–Y48E (Flag), stably expressed in Hdac1/2 double knockout mouse ESCs (UniProt Q13547).

As to “RERE (endogenous, mouse ESCs) (from UniProt Q80TZ9 1-1558)”, the binding result in test [1] and in test [2] was “binds” throughout.

“RCOR2 (endogenous, mouse ESCs) (from UniProt Q8C796 1-523)”: the binding entry in test [1] is recorded as “binds”; in test [2] it was “binds weakly”.

B1: SIN3A (endogenous, mouse ESCs) (protein, UniProt Q60520 1-1274)
chain: MKRRLDDQESPVYAAQQRRIPGSTEAFSHQHRVLAPAPPVYEAVSETMQSATGIQYSVAPNYQVSAVPQSSGSHGPAIAAVHSSHHHPTAVQPHGGQVVQSHAHPAPPVAPVQGQQQFQRLKVEDALSYLDQVKLQFGSQPQVYNDFLDIMKEFKSQSIDTPGVISRVSQLFKGHPDLIMGFNTFLPPGYKIEVQTNDMVNVTTPGQVHQIPTHGIQPQPQPPPQHPSQPSSQSAPTPAQPAPQPTAAKVSKPSQLQAHTPASQQTPPLPPYASPRSPPVQPHTPVTISLGTAPSLQNNQPVEFNHAINYVNKIKNRFQGQPDIYKAFLEILHTYQKEQRNAKEAGGNYTPALTEQEVYAQVARLFKNQEDLLSEFGQFLPDANSSVLLSKTTAEKVDSVRNDHGGTVKKPQLNNKPQRPSQNGCQIRRHSGTGATPPVKKKPKLMSLKESSMADASKHGVGTESLFFDKVRKALRSAEAYENFLRCLVIFNQEVISRAELVQLVSPFLGKFPELFNWFKNFLGYKESVHLESFPKERATEGIAMEIDYASCKRLGSSYRALPKSYQQPKCTGRTPLCKEVLNDTWVSFPSWSEDSTFVSSKKTQYEEHIYRCEDERFELDVVLETNLATIRVLEAIQKKLSRLSAEEQAKFRLDNTLGGTSEVIHRKALQRIYADKAADIIDGLRKNPSIAVPIVLKRLKMKEEEWREAQRGFNKVWREQNEKYYLKSLDHQGINFKQNDTKVLRSKSLLNEIESIYDERQEQATEENAGVPVGPHLSLAYEDKQILEDAAALIIHHVKRQTGIQKEDKYKIKQIMHHFIPDLLFAQRGDLSDVEEEEEEEMDVDEATGAPKKHNGVGGSPPKSKLLFSNTAAQKLRGMDEVYNLFYVNNNWYIFMRLHQILCLRLLRICSQAERQIEEENREREWEREVLGIKRDKSDSPAIQLRLKEPMDVDVEDYYPAFLDMVRSLLDGNIDSSQYEDSLREMFTIHAYIAFTMDKLIQSIVRQLQHIVSDEVCVQVTDLYLAENNNGATGGQLNSQTSRSLLESAYQRKAEQLMSDENCFKLMFIQSQGQVQLTVELLDTEEENSDDPVEAERWSDYVERYMSSDTTSPELREHLAQKPVFLPRNLRRIRKCQRGREQQEKEGKEGNSKKTMENVESLDKLECRFKLNSYKMVYVIKSEDYMYRRTALLRAHQSHERVSKRLHQRFQAWVDKWTKEHVPREMAAETSKWLMGEGLEGLVPCTTTCDTETLHFVSINKYRVKYGTVFKAP
Regarding B1, the binding entry in test [1], in test [2] and in test [3] was “binds” in each case.

B2: ARID4B (endogenous, mouse ESCs) (protein, UniProt A2CG63 1-1314)
chain: MKALDEPPYLTVGTDVSAKYRGAFCEAKIKTAKRLVKVKVTFRHDSSTVEVQDDHIKGPLKVGAIVEVKNLDGAYQEAVINKLTDASWYTVVFDDGDEKTLRRSSLCLKGERHFAESETLDQLPLTNPEHFGTPVIGKKTNRGRRSNHIPEEESSSSSSDDDEEERKQTDELLGKVVCVDYVSLEKKKAMWFPALVVCPDCSDEIAVKKDNILVRSFKDGKFTSVPRKDVHEITSDTVPKPDAVLKQAFDQALEFHKSRAIPANWKTELKEDSSSSEAEEEEEEEDDEKEKEDNSSEEEEEIEPFPEERENFLQQLYKFMEDRGTPINKRPVLGYRNLNLFKLFRLVHKLGGFDNIESGAVWKQVYQDLGIPVLNSAAGYNVKCAYKKYLYGFEEYCRSANIDFQMALPEKVLNKPCKDCENKEVKVKEESETEIKEVNVEDSKNVMPKEETPAEDESERKENIKPSLGSKKSLLECIPAQSDEEKEAHITKLEENENLEDKDGGRARTEEAFSTEVDGEEEQARSGDETNKEEDEDDEEIEEEEEEDEEEDEDEDDDDNNEEEEFECYPPGMKVQVRYGRGKNQKMYEASIKDSDVEGGEALYLVHYCGWNVRYDEWIKADKIVRPADKNVPKIKHRKKIKNKLDKEKDRDEKYSPKNCKLRRLSKSPFQSNPSPEMVSKLDLADAKNSDTAHIKSIEITSILNGLQASESSAEDSEQEDERCTQDVDNIGKDESKVEHSTHSRNELISKEEQSSPSLLEENKVHTDLVIAKTVSKSPERLRKDMEAISEDTDFEEEDEITKKRKDVKKDTTDKALKPQTKRGKRRYCSADECLQTGSPGKKEDRTKSKEPLCTENSSNSSSDEDEEEKSKAKMTPTKKYNGLEEKRKSLRTTSFYSGFSEVAEKRIKLLNNSDERLQNNRAKDRKDVWSSIQGQWPKKTLKELFSDSDTEAAASPPHPAPDEGAVEESLQTVAEEESCSPIMELEKPLPASVDNKPIEEKPLEVSDRKTEFPSSGSNSVLNTPPTTPESPSSVTITEASQQQSSVTVSVPLPPNQEEVRSIKSETDSTIEVDSVVGELQDLQSEGNSSPAGFDASVSSSSSNQPEPDNPEKACTGQKRVKDTQGVGSSSKKQKRSHKATVVNNKKKGKGTNSSDSEELSAGESVTKTQTIKSVPTGMKTHNSKSPARVQSPGKGGRNGDKDPDLKEPSNRLPKVYKWSFQTSDLENMTSAERISILQEKLQEIRKHYLSLKSEVASIDRRRKRLKKKERESAATSSSSSSPSSSSITAAVMLTLAEPSMSSASQNGMSVECR
With B2, the binding entry in test [1] was “binds”.

B3: EMSY (endogenous, mouse ESCs) (protein, UniProt Q8BMB0 1-1264)
chain: MPVVWPTLLDLSRDECKRILRKLELEAYAGVISALRAQGDLTKEKKDLLGELSKVLSISTERHRAEVRRAVNDERLTTIAHKMNLSLYLGERPSYSMSGPNSSSEWSIEGRRLVPLMPRLVPQTAFTVTANAVANAAVQHNASLPVPAETASKDGVSCSDEDEKPRKRRRTNSSSSSPVVLKEVPKAVVPVSKTITVPVSGSPKMSNIMQSIANSLPPHMSPVKITFTKPSTQTTNTTTQKVIIVTTSPSSTFVPNILSKSHNYAAVTKLVPTSVIASTTQKPPVVITASQASLVTSSSNGNSSSTSSPISSTVAVTTVVSSTPSVVMSTVAQGVSTSAIKVASTRLPSPKSLVSGPTQILAQFPKQHQQSPKQQLQQVQQQTQQPVAQPSSVSQQQQPQQSALPPGIKPTIQIKQESGVKIITQQVQPSKILPKPVTATLPTSSNSPIMVVSSNGAIMTTKLVTTPTGTQATYTRPTVSPSLGRVATTPGAATYVKTTSGSIITVVPKSLATLGGKIISSNIVSGTTTKITTIPMTSKPNVIVVQKTTGKGTTIQGLPGKNVVTTLLNAGGEKTLQTVPAGAKPAIITATRPITKMIVTQPKGIGSAVQPAAKIIPTKIVYGQQGKTQVLIKPKPVTFQATVVSEQTRQLVTETLQQASRVADASNSSAQEGKEEPQGYTDSSSSSTESSQSSQDSQPVVHVIASRRQDWSEHEIAMETSPTIIYQDVSSESQSATSTIKALLELQQTTVKEKLESKPRQPTIDLSQMAVPIQMTQEKRHSPESPSIAVVESELVAEYITTVSHRSQPQQPSQPQRTLLQHVAQSQTATQTSVVVKSIPASSPGAITHIMQQALSSHTAFTKHSEELGTEEGEVEEMDTLDPQTGLFYRSALTQSQSTKQQKLSQPQLEQTQLQVKTLQCFQTKQKQTIHLQADQLQHKLTQMPQLSIRHQKLNPLQQEQAQPKPDAQHTQHTVVAKDRQLPTLMAQPPQTVVQVLAVKTTQQLPKLQQAPNQPKIYVQPQTPQSQMALPSSEKQPASQVEQPIITQGSSVTKITFEGRQPPTVTKITGGSSVPKLTSPVTSISPIQASEKTAVSDILQMSLMEAQIDTNVEHMVVDPPKKALATNVLTGEAGALPSTHVVVAGMTKCRESCSSPSAVGPPLTTRKIEAAGVPTTGQFMRIQNVGQKKAEESPTEIIIQAIPQYAIPCHSSSNVVVEPSGLLELNNFTSQQLDDDETAMEQDIDSSTEDGTEPSPSQSAVERS
Take B3: the binding entry in test [1] is “binds”.

B4: MIER3 (endogenous, mouse ESCs) (protein, UniProt Q3UHF3 1-551)
chain: MAEASFGSSSPVGSLSSEDHDFDPTAEMLVHDYDDERTLEEEELMDDGKNFSSEIEDLEKEGNMPLEDLLAFYGYESTIPAVANSSANSSPSELADELPDMTLDKEEIAKDLLSGDDEETQSSADDLTPSVTSHETSEFFPRPLRSNTTCDGDKESEIEDVETDSGNSPEDLRREIMIGLEYQAEIPPYLGEYNGDDEKAYENEDQLLWHPGVLLESKVKEYLVETSLRTGNEKVLDRISSGTHTRDNEQALYELLKCNHNIKEAIERYCCNGKASQEGMTAWTEEECRSFEHALMLHGKDFHLIQKDKVRSRTVAECVAFYYMWKKSERYDYFAQQTKFGKKRYNHHPGVTDYMDRLVDETESLGGTVSSSALTCNRPEPVPDQPLNILSSFTASDLTALTNSVATVCNPTAVNCLDDSFPPLANTPRGHVNHVPVVTEELLTLPSNGESDCFNLFETGFYHSELNPMCSEESERPAKRLKMGIAVPESFMNEVSVNNLGVDFENHTHHITSAKMAVSVADFGSLSANETNGFINAHSLHQHQHAALHSE
For the molecule B4, the binding result in test [1] and in test [2] was “binds” throughout.

B5: MIER2 (endogenous, mouse ESCs) (protein, UniProt Q3U3N0 1-541)
chain: MAEASSLERQSPRVASCLVHSLCPREPSLQTTAVVSMGSADHQFNLAELLTQNYNLQEGCAEAPQCPDKPEEELDKDFIDQSSDMPLDELLALYGYESSDPISEQESEGGDTAPALPDMTLDKEQIAKDLLSGEEEEETQSSADDLTPSVTSHEASDLFHNQSGSRFLAGDNGPGSSASSDTEEDALPANKCKKEIMVGPQFQADLNILHLNRHCDKIYENEDQLLWSPSVLPEREVEEFLYRAVKRRWQEMAGPQIPEGEVVKDSEQALYELVKCNFNVEEALRRLRFNVKVIRDGLCAWSEEECRNFEHGFRVHGKNFHLIQANKVRTRSVGECVEYYYLWKKSERYDYFAQQTRLGRRKFVSSGTTDTEQDLDGLDPDGHARLHSEAGVPVEPLNVDIEAGGLDQPGVGSDDLPSSEPGPRPFQQLDEPPAVPSLQQPTSLAASAELPPAAAAAPEPGTSPRLPVDLALPEELPLVSSPVALSEDTAEPMAPAQVALSVTEFGLIGIGDVNPFLTGHPACPTSTLHSEPLSQCNVMTC
For the molecule B5, the binding result in test [1] and in test [2] was “binds” throughout.
